# According to patent publication US11999957B2, “Method for enhancing vanillin resistance of Saccharomyces cerevisiae by knocking out SNG1 gene” (QILU UNIVERSITY OF TECHNOLOGY, priority 2020, dated 2024):
# System: sng1Δ mutant
# Assay: Vanillin reduction/consumption during shake-flask fermentation (HPLC of extracellular vanillin)
# Format: cell-based, Saccharomyces cerevisiae
smiles,measurement,setting,value
COc1cc(C=O)ccc1O [vanillin],specific consumption (reduction) rate of vanillin,"sng1Δ mutant, SC medium containing 6 mmol/L of vanillin, vanillin reduced to vanillyl alcohol",0.052 g/g/h
same,improvement of specific reduction/consumption rate of vanillin of sng1Δ mutant compared to the control strain,"under vanillin stress (6 mmol/L), sng1Δ mutant vs BY4741",48% and 52%

# Where “and” joins values, the source holds several entries; their conditions need not be identical. Equal values may be shown once.
